In patent US20250236842A1:
No constants are given. Whether binding was seen depends on the method and setting. Some entries that bind do so weakly or less than the wild type.

B1: scFv-CD8-TIR-CAR (chimeric antigen receptor targeting EGFRvIII, on iPSC-derived macrophages) (protein)
chain: DIQMTQSPSSLSASVGDRVTITCRASQGIRNNLAWYQQKPGKAPKRLIYAASNLQSGVPSRFTGSGSGTEFTLIVSSLQPEDFATYYCLQHHSYPLTSGGGTKVEIKRTGSTSGSGKPGSGEGSEVQVLESGGGLVQPGGSLRLSCAASGFTFSSYAMSWVRQAPGKGLEWVSAISGSGGSTNYADSVKGRFTISRDNSKNTLYLQMNSLRAEDTAVYYCAGSSGWSEYWGQGTLVTVSSIYIWAPLAGTCGVLLLSLVITLYCNIYDAFVIYSSQDEDWVRNELVKNLEEGVPPFQLCLHYRDFIPGVAIAANIIHEGFHKSRKVIVVVSQHFIQSRWCIFEYEIAQTWQFLSSRAGIIFIVLQKVEKTLLRQQVELYRLLSRNTYLEWEDSVLGRHIFWRRLRKALLDG
B2: scFv-CD8-DELTA-CAR (CAR without an intracellular activation domain, on iPSC-derived macrophages) (protein)
chain: DIQMTQSPSSLSASVGDRVTITCRASQGIRNNLAWYQQKPGKAPKRLIYAASNLQSGVPSRFTGSGSGTEFTLIVSSLQPEDFATYYCLQHHSYPLTSGGGTKVEIKRTGSTSGSGKPGSGEGSEVQVLESGGGLVQPGGSLRLSCAASGFTFSSYAMSWVRQAPGKGLEWVSAISGSGGSTNYADSVKGRFTISRDNSKNTLYLQMNSLRAEDTAVYYCAGSSGWSEYWGQGTLVTVSSIYIWAPLAGTCGVLLLSLVITLYC
B3: scFv-CD8-CD3ZETA-CAR (chimeric antigen receptor targeting EGFRvIII, on iPSC-derived macrophages) (protein)
chain: DIQMTQSPSSLSASVGDRVTITCRASQGIRNNLAWYQQKPGKAPKRLIYAASNLQSGVPSRFTGSGSGTEFTLIVSSLQPEDFATYYCLQHHSYPLTSGGGTKVEIKRTGSTSGSGKPGSGEGSEVQVLESGGGLVQPGGSLRLSCAASGFTFSSYAMSWVRQAPGKGLEWVSAISGSGGSTNYADSVKGRFTISRDNSKNTLYLQMNSLRAEDTAVYYCAGSSGWSEYWGQGTLVTVSSIYIWAPLAGTCGVLLLSLVITLYCRVKFSRSADAPAYKQGQNQLYNELNLGRREEYDVLDKRRGRDPEMGGKPRRKNPQEGLYNELQKDKMAEAYSEIGMKGERRRGKGHDGLYQGLSTATKDTYDALHMQALPPR

The binders below were run against EGFRvIII (GBM-specific membrane protein, over-expressed on U87MG cells) (UniProt P00533) (assay: co-culture of CAR-iMAC with U87MG^EGFRvIII cells for 12 h, fluorescence microscopy (cell adhesion)).
In the case of B1, the binding is reported as “binds”. In the case of B2, the binding is reported as “binds”. With B3 the binding was “binds”.
